Results deposited as PubChem BioAssay AID686938 (Drosophila RNAi Screening Center, 2013).
Purpose: 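Knock-downs reducing store-operated calcium influx in Drosophila cells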 (primary screen). Cells: Drosophila S2R+ cells. Knock-down reagent: long dsRNA against Drosophila genes, about 0.25 µg dsRNA per well, roughly 10,000 cells. Time to read-out: 5 days of knock-down before the calcium assay. Challenge: thapsigargin (SERCA pump blocker) to empty calcium stores; entry signal taken 4 min after adding it. Detection: 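Per-well fluo-4 fluorescence in two replicates, unnormalised, measured in resting cells and 4 min after store depletion by the SERCA blocker thapsigargin; ratio of the two present in few wells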. Reading the numbers: calcium entry signal: higher = stronger calcium signal after store depletion; entry to resting ratio: higher = more calcium entry relative to resting level; resting calcium signal: higher = higher resting calcium signal. Active means: 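Hit if the duplicate-averaged plate z-score for entry over resting signal is under −3; wells with weak total dye signal (Fmax z < −2) or more than 5 off-targets removed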. Calls: active = strongly reduced calcium entry; inactive = no strong reduction.
The deposit covers about 23,000 reagents; shown is a random part of those with a known target gene and a result. Over the whole deposit, 75 (0.33%) got an active call. 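Raw plate signals without normalisation; calls rest on plate z-scores that were not deposited; ratio present for only 364 wells.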 The numbers tell different reagents against one gene apart. Not given: the dose of the treatment.

calcium entry signal, replicate 1 (fluorescence units) | calcium entry signal, replicate 2 (fluorescence units) | entry to resting ratio | resting calcium signal, replicate 1 (fluorescence units) | resting calcium signal, replicate 2 (fluorescence units) | call | target gene | reagent no.
2.87e7 | 3.46e7 | – | 1.38e7 | 1.67e7 | inactive | acj6 | 1
4.65e7 | 3.61e7 | – | 2.16e7 | 1.80e7 | inactive | Rsph1 | 1
2.97e7 | 3.67e7 | – | 1.37e7 | 2.04e7 | inactive | uno | 1
3.08e7 | 4.68e7 | – | 1.58e7 | 1.93e7 | inactive | CG11696 | 1
3.43e7 | 5.00e7 | – | 1.67e7 | 2.26e7 | inactive | ko | 1
4.24e7 | 3.77e7 | – | 1.76e7 | 1.82e7 | inactive | Mbs | 1
4.31e7 | 4.78e7 | – | 2.01e7 | 3.28e7 | inactive | Mbs | 2
4.57e7 | 2.81e7 | – | 1.99e7 | 1.44e7 | inactive | Mbs | 3
3.07e7 | 5.49e7 | – | 1.52e7 | 2.46e7 | inactive | CG15570 | 1
2.93e7 | 3.96e7 | – | 1.45e7 | 1.69e7 | inactive | CG13707 | 1
2.85e7 | 3.92e7 | – | 1.34e7 | 1.60e7 | inactive | Lcp65Aa | 1
4.21e7 | 4.80e7 | – | 1.81e7 | 2.08e7 | inactive | CG9427 | 1
1.71e7 | 2.47e7 | – | 1.06e7 | 4.43e7 | inactive | E2f1 | 1
3.32e7 | 4.58e7 | – | 1.68e7 | 1.79e7 | inactive | Tollo | 1
3.44e7 | 4.74e7 | – | 1.59e7 | 2.14e7 | inactive | spo | 1
2.48e7 | 3.36e7 | – | 1.33e7 | 1.48e7 | inactive | Or67a | 1
3.35e7 | 4.13e7 | – | 1.80e7 | 1.86e7 | inactive | Cp38 | 1
3.47e7 | 3.98e7 | – | 1.82e7 | 1.92e7 | inactive | Cpr62Ba | 1
3.56e7 | 4.62e7 | – | 1.65e7 | 1.95e7 | inactive | NHP2 | 1
4.25e7 | 4.20e7 | – | 2.08e7 | 1.95e7 | inactive | Pngl | 1
2.23e7 | 3.47e7 | – | 1.17e7 | 1.61e7 | inactive | CG7201 | 1

Single entries from above.
Under “resting calcium signal, replicate 2 (fluorescence units)”, Tollo has 1.79e7
Value for Mbs #2 in “calcium entry signal, replicate 2 (fluorescence units)”: 4.78e7

The list goes on.
calcium entry signal, replicate 1 (fluorescence units) | calcium entry signal, replicate 2 (fluorescence units) | entry to resting ratio | resting calcium signal, replicate 1 (fluorescence units) | resting calcium signal, replicate 2 (fluorescence units) | call | target gene | reagent no.
2.96e7 | 6.02e7 | – | 1.48e7 | 2.86e7 | inactive | CG11241 | 1
3.13e7 | 6.18e7 | – | 1.57e7 | 2.87e7 | inactive | CG11241 | 2
4.63e7 | 5.68e7 | – | 2.45e7 | 2.54e7 | inactive | p38a | 1
5.20e7 | 4.62e7 | – | 2.50e7 | 1.92e7 | inactive | CG14615 | 1
4.03e7 | 4.59e7 | – | 1.83e7 | 1.91e7 | inactive | Tsp26A | 1
2.60e7 | 2.79e7 | – | 1.26e7 | 1.33e7 | inactive | Corp | 1
3.69e7 | 5.20e7 | – | 1.77e7 | 5.96e7 | inactive | Trs33 | 1
3.25e7 | 4.54e7 | 2 | 1.66e7 | 1.99e7 | inactive | CG32795 | 1
3.24e7 | 5.37e7 | 2.1 | 1.53e7 | 2.07e7 | inactive | CG32795 | 2
3.08e7 | 4.83e7 | 2.1 | 1.47e7 | 1.94e7 | inactive | MED18 | 1
4.92e7 | 5.19e7 | – | 2.25e7 | 2.09e7 | inactive | jb | 1
2.93e7 | 2.47e7 | – | 1.47e7 | 1.17e7 | inactive | CG6013 | 1
1.73e7 | 3.20e7 | – | 8.90e6 | 1.69e7 | inactive | CG13551 | 1
1.50e7 | – | – | 1.25e7 | – | inactive | Sf3b2 | 1
3.76e7 | 4.08e7 | – | 1.66e7 | 1.81e7 | inactive | Dbp45A | 1
4.34e7 | 3.06e7 | – | 2.07e7 | 1.46e7 | inactive | Cpr11A | 1
5.15e7 | 3.21e7 | – | 3.38e7 | 1.45e7 | inactive | CG8564 | 1
4.34e7 | 5.34e7 | – | 1.82e7 | 2.20e7 | inactive | CG8031 | 1
4.49e7 | 5.47e7 | – | 1.87e7 | 1.98e7 | inactive | CG5895 | 1
